In patent publication US6100378A, “Enhancement of the pro-fertility action of a molecule involved in a sperm-egg binding” (BioPore, Inc., priority 1999, dated 2000):
Not every detail of the peptide structures is certain; ends, links or a residue may be inferred. Bridge positions count the residues as written; N and C are the ends. Ends that are not written are not given here.

System: White Leghorn hens inseminated with frozen-thawed rooster sperm
Experiment: Fertility trial: artificial insemination of hens with frozen-thawed rooster sperm exposed to peptide
Assay type: in vivo, chicken
From the text: Each bar based on >425 eggs.
To compare fertility achieved after exposure of rooster sperm to SEQ ID NO: 4 and SEQ ID NO: 1, we used cryopreserved semen as in Example 1. To facilitate detection of benefit from peptides, we used a limited number of sperm for each artificial insemination. Pooled, deglycerolated semen (1 billion sperm/ml; at 0-4C.), in salts buffer as described in Example 1, was dispensed into tubes containing SEQ ID NO: 4 or SEQ ID NO: 1 to make nine suspensions: 0.0 (control), 0.2, 0.5, 1.0 or 2.0 μM and mixed. Artificial insemination of White Leghorn hens (40/group) was within 1 hour, and used 50 μl (50 million sperm). Eggs were collected daily, stored ≤7 d at 14C., incubated, and candled on day 7 (eggs with viable embryo were classed as fertile). Data resulting from four inseminations at 4-day intervals are shown (FIG. 2). It was concluded that both 0.2 and 0.5 μM SEQ ID NO: 4 improved fertility as did 0.2, 0.5, 1.0 and 2.0 μM SEQ ID NO: 1. […] The increase in fertility (above the control value) with the best concentration of SEQ ID NO: 1 (15.4 units at 2.0 μM) was 2.0× that with SEQ ID NO: 4 (7.8 units at 0.5 μM). Clearly, brief in vitro exposure of sperm to SEQ ID NO: 1 rather than SEQ ID NO: 4 before artificial insemination gave a greater increase in percentage of fertilized eggs over a greater range in concentration.

CQSLQEYLAEQNQRQLESNKIPEVDLARVVAPFMSNIPLLLYPQDRPRSQPQPKANEDVC (disulfide 1-60) [SEQ ID NO: 4, reference compound]
increase in fertility (above the control value) with the best concentration (0.5 μM peptide, percentage of fertilized eggs, 50 million sperm, four inseminations at 4-day intervals): 7.8 units
fold range of concentrations of benefit to fertility (tested 0.2, 0.5, 1.0, 2.0 μM): ~ 2.5 fold
